# The other results are listed elsewhere or left out. The main result of the screen is listed elsewhere. These columns were measured beside it and carry no call. The list favours compounds with an active or inconclusive main result. Potencies come from curve fits of mixed quality, noted in brackets.
# Assay: S16 Schwann cell PMP22 intronic element beta-lactamase assay (AID 624044)
# Details: S16 rat Schwann cells, PMP22 element beta-lactamase FRET, 24 h; measured here: 460 nm blue channel
# Summary of the method: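 Rat S16 Schwann cells with beta-Lac driven by a PMP22 intronic element, compound-treated 24 h at 37 °C. LiveBLAzer FRET B/G read: 460 nm normalized to potassium clavulanate vs DMSO; 535 nm FRET as viability; concentration-effect curves classified.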
row,Structure (SMILES),AC50
1,CC(C)(C)c1cc(O)ccc1O,"1.41 µM [falling, full curve, poor fit]"
2,CN1C[C@H](C(=O)N[C@]2(C)O[C@@]3(O)[C@@H]4CCCN4C(=O)[C@H](Cc4ccccc4)N3C2=O)C=C2c3cccc4[nH]cc(c34)C[C@H]21,"28.2 µM [falling, single point]"
3,O=C(Nc1ccc(Cl)cc1)Nc1ccc(Cl)c(Cl)c1,"8.91 µM [falling, full curve]"

# Reference: PubChem BioAssay (NCATS)
